Results are given in words; binding and its absence hold for the method and conditions named. Binding seen in cells or lysates may run through a third protein. Some entries that bind do so weakly or less than the wild type.
T1: small heat shock protein 23 (sHSP23) (Drosophila melanogaster (endogenous in adult fly heads)) (UniProt P02516)
T1 sequence: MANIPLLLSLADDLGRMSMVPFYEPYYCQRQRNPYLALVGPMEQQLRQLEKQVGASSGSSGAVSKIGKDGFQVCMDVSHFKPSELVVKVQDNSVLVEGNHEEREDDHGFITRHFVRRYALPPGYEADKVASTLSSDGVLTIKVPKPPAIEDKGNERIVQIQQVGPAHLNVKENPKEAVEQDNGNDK

T2: small heat shock protein 26 (sHSP26) (Drosophila melanogaster (endogenous in adult fly heads))
T2 sequence: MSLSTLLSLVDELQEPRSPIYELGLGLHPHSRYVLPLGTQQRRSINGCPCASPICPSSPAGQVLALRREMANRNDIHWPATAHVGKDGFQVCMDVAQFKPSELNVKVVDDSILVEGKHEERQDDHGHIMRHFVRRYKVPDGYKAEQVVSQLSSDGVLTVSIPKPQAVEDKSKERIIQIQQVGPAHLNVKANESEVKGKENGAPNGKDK


Experiments:
[1] = target: T1, small heat shock protein 23 (sHSP23) (Drosophila melanogaster (endogenous in adult fly heads)); test: co-IP; adult fly heads (5-10) lysed in NaCl 150 mM, 0.1% Tween-20, TBS pH 7.5; Protein A/G agarose beads loaded overnight at 4°C with anti-Hsp23 or anti-Hsp26 antibody or control IgG, 1 h at 4°C with the supernatant; western blot with anti-Hsp23 and anti-Hsp26; control flies and pkm RNAi flies (interaction not modified by pkm knockdown)
[2] = target: T2, small heat shock protein 26 (sHSP26) (Drosophila melanogaster (endogenous in adult fly heads)); test: as above

binding [1]	binding [2]	Binder
binds	–	small heat shock protein 26 (sHSP26) (protein) MSLSTLLSLVDELQEPRSPIYELGLGLHPHSRYVLPLGTQQRRSINGCPCASPICPSSPAGQVLALRREMANRNDIHWPATAHVGKDGFQVCMDVAQFKPSELNVKVVDDSILVEGKHEERQDDHGHIMRHFVRRYKVPDGYKAEQVVSQLSSDGVLTVSIPKPQAVEDKSKERIIQIQQVGPAHLNVKANESEVKGKENGAPNGKDK
–	binds	small heat shock protein 23 (sHSP23) (protein, UniProt P02516 1-186) MANIPLLLSLADDLGRMSMVPFYEPYYCQRQRNPYLALVGPMEQQLRQLEKQVGASSGSSGAVSKIGKDGFQVCMDVSHFKPSELVVKVQDNSVLVEGNHEEREDDHGFITRHFVRRYALPPGYEADKVASTLSSDGVLTIKVPKPPAIEDKGNERIVQIQQVGPAHLNVKENPKEAVEQDNGNDK
